In US20170204123A1, “Gold (I)-Phosphine Compounds as Anti-Bacterial Agents” (Auspherix Limited, priority 2014, published 2017):

The molecules below were run on chinese hamster ovary cells (CHO) (assay: CHO toxicity assay (CCK-8 cell viability)). Details: dose giving 50% growth inhibition of CHO cells divided by dose where 50% of S. aureus growth is inhibited.
Format: cell-based
Protocol: Cell counting kit-8 (Sigma, CCK-8) assays were performed to assess the effect of compounds on cell viability. The assay is based on the reduction of a water-soluble tetrazolium salt (WST-8) by cellular dehydrogenases to a formazan dye which can be detected spectroscopically. 96-well plates were seeded with chinese hamster ovary cells (CHO) cells at 7×10^3 cells per well in Dulbecco's modified Eagle's medium nutrient mixture F-12 Ham (containing 15 mM HEPES, NaHCO3, pyridoxine and L-glutamine) supplemented with 10% fetal bovine serum (FBS). The following day serial dilutions of compounds (dissolved and diluted in DMSO) were added to the cells in duplicates. Control included an ‘untreated’ control where cells were grown in the presence of 1% DMSO and a medium only control (plus 1% DMSO). After 24 hours CCK-8 reagent (10 μl) was added to each well and cell viability was assessed by measuring the absorbance at a wavelength of 450 nm after 2.5-3 hours. Only living cells can reduce the tetrazolium salts into coloured formazan products. Results were expressed as 50% growth inhibition (TD50) values compared to ‘untreated’ control.
The therapeutic index was calculated as the ratio of the dose that produces growth inhibition in 50% of CHO cells divided by the dose where 50% of S. aureus growth is inhibited.

Structure (SMILES)	Therapeutic Index
CC[P](CC)(CC)=[Au][S]C1CCOCC1 [Compound 1]	1.7
CC[P](CC)(CC)=[Au][S]C1CCN(C(=O)OC(C)(C)C)CC1 [Compound 2]	2.3
CC[P](CC)(CC)=[Au][S]c1ncccn1 [Compound 3]	3
CC[P](CC)(CC)=[Au][S]c1cccnn1 [Compound 4]	3.7
CC[P](CC)(CC)=[Au][S]c1nc2ccccc2[nH]1 [Compound 5]	3.5
CC[P](CC)(CC)=[Au][S][C@H]1CC[C@H](O)CC1 [Compound 6]	4.5
CC[P](CC)(CC)=[Au][S]C[C@H](NC(C)=O)C(=O)OC [Compound 7]	8.7
CC[P](CC)(CC)=[Au][S]c1nc2ncccc2o1 [Compound 8]	4
C[P](=[Au][S]c1nc2ccccc2[nH]1)(c1ccccc1)c1ccccc1 [Compound 9]	1.6
COC(=O)[C@H](C[S][Au]=[P](C)(c1ccccc1)c1ccccc1)NC(C)=O [Compound 10]	1.1
C[P](=[Au][S]c1nc2ncccc2o1)(c1ccccc1)c1ccccc1 [Compound 11]	1.3
CC[P](CC)(CC)=[Au][Se]C[C@H](NC(C)=O)C(=O)OC [Compound 12]	5.3

Each molecule was assayed on human hepatocyte cell line (HepG2) (assay: HepG2 cell inhibition assay (CCK-8 cell viability)). Details: dose giving 50% growth inhibition of HepG2 cells divided by dose where 50% of S. aureus growth is inhibited.
Format: cell-based
Protocol: HepG2 Cell Inhibition Assay
Cell counting kit-8 (Sigma, CCK-8) assays were performed to assess the effect of compounds on cell viability. The assay is based on the reduction of a water-soluble tetrazolium salt (WST-8) by cellular dehydrogenases to a formazan dye which can be detected spectroscopically. 96-well plates were seeded with the human hepatocyte cell line (HepG2) at approximately 8×10^3 cells per well in Minimum Essential Medium Eagle (EMEM) with Earle's salts and sodium bicarbonate supplemented with 10% heat-inactivated foetal bovine serum 2 mM glutamine and 1% non-essential amino acids (NEAA). The following day serial dilutions of compounds (dissolved and diluted in DMSO) were added to the cells in duplicates. Control included an ‘untreated’ control where cells were grown in the presence of 1% DMSO and a medium only control (plus 1% DMSO). After 24 hours CCK-8 reagent (10 μl) was added to each well and cell viability was assessed by measuring the absorbance at a wavelength of 450 nm after 2-3 h hours. Only living cells can reduce the tetrazolium salts into coloured formazan products. Results were expressed as 50% growth inhibition (TD50) values compared to ‘untreated’ control. The therapeutic index was calculated as the ratio of the dose that produces growth inhibition in 50% of HepG2 cells divided by the dose where 50% of S. aureus growth is inhibited.

Structure (SMILES)	Therapeutic Index (HepG2)
C[P](C)(=[Au][S]c1nc2ccccc2[nH]1)c1ccccc1 [Compound 13]	6
C[P](C)(=[Au][S]c1nc2ncccc2o1)c1ccccc1 [Compound 14]	6
COC(=O)[C@H](C[S][Au]=[P](C)(C)c1ccccc1)NC(C)=O [Compound 15]	4
CC[P](CC)(CC)=[Au][S]C[C@H](NC(C)=O)C(N)=O [Compound 16]	>11
CC(C)[P](=[Au][S]c1nc2ccccc2[nH]1)(C(C)C)C(C)C [Compound 20]	>8
COC(=O)[C@H](C[Se][Au]=[P](C)(c1ccccc1)c1ccccc1)NC(C)=O [Compound 22]	4
COC(=O)[C@H](C[Se][Au]=[P](C(C)C)(C(C)C)C(C)C)NC(C)=O [Compound 23]	13
